# Structures can show the parent of a compound that is named as a salt. This is one part of the list. Hit calls seldom repeat between salt and free forms of one compound.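 Kinases were expressed as nanoluciferase fusions in K562 cells and luminescence was read every 4 h between 2 and 18 h as percent of control, DMSO set to 100% and a positive control to 0%. A time point counts as decreased when the signal drops significantly (2 sigma). The hit call is the authors' own, does not follow from the count of time points alone, and its rule is not shown.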
# Amino acid sequences for entries named in this document (tags omitted).
# UniProt Q00535, whole entry, looked up: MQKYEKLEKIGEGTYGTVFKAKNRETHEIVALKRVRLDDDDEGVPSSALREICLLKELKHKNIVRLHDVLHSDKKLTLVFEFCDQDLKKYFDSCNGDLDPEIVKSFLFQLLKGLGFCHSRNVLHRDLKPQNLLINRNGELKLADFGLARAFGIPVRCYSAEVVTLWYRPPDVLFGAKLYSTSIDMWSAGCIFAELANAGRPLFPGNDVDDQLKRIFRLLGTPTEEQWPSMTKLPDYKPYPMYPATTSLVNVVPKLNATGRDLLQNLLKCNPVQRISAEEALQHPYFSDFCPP
# UniProt Q00534, whole entry: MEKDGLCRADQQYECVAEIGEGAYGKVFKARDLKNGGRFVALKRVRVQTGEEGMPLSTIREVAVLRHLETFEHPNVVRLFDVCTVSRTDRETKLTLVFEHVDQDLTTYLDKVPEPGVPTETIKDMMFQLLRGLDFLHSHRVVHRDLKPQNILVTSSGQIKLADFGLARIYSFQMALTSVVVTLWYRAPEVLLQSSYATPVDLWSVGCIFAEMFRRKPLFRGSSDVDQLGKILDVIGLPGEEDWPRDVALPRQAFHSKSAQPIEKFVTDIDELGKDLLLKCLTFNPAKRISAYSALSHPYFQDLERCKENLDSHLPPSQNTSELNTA
# Target: CDK5 (UniProt Q00535)
# Assay: kinase-Nluc reporter destabilization hit call (1 = scored as downregulated) (binary); higher = compound decreases kinase abundance
# Conditions: K562; 2-18 h
row,Structure (SMILES),kinase-Nluc reporter destabilization hit call
1,CCCCNc1nc(N)c2[nH]c(=O)n(Cc3ccc(C)nc3)c2n1 (10 µM),inactive: 0
2,N#CC(C#N)=Cc1ccc([N+](=O)[O-])c(O)c1 (10 µM),inactive: 0
3,O=c1[nH]c2ccccc2n1C1CCN(Cc2ccc(-c3[nH]c4cc5ncnc5cc4nc3-c3ccccc3)cc2)CC1 [AKT inhibitor VIII] (2.5 µM),inactive: 0
4,CC(=O)Oc1ccc(/C=C/c2cc(OC(C)=O)cc(OC(C)=O)c2)cc1 [Triacetylresveratrol] (10 µM),inactive: 0
5,O=C1c2ccccc2C(=O)c2c1cccc2-c1cnn(C2CCNCC2)c1 [PDK4-IN-1 (hydrochloride)] (10 µM),inactive: 0
6,CC1C(=O)OC2C(O)C34C5OC(=O)C3(OC3OC(=O)C(O)C34C(C(C)(C)C)C5O)C12O (stereo unspecified) [Ginkgolide C] (10 µM),inactive: 0
7,O=Cc1cn(Cc2ccc(Cl)cc2)c2ccccc12 [Oncrasin-1] (10 µM),inactive: 0
8,N#CC(C#N)=NNc1cccc(Cl)c1 (2.5 µM),inactive: 0
9,CC(C)=CC[C@@H](OC(=O)CC(C)(C)O)C1=CC(=O)c2c(O)ccc(O)c2C1=O [β-Hydroxyisovalerylshikonin] (2.5 µM),inactive: 0
10,O=c1ccc2cc(O[C@@H]3O[C@H](CO)[C@@H](O)[C@H](O)[C@H]3O)c(O)cc2o1 [Esculin] (10 µM),inactive: 0
11,C[C@H]1CC[C@]2(NC1)O[C@H]1C[C@H]3[C@@H]4CC[C@H]5C[C@@H](O)CC[C@]5(C)[C@H]4CC[C@]3(C)[C@H]1[C@@H]2C [Tomatidine] (2 µM),inactive: 0
12,C/C(O)=C(\C#N)C(=O)Nc1cc(Br)ccc1Br (10 µM),inactive: 0
13,COc1ccc2c(c[n+](C)c3c4cc5c(cc4ccc23)OCO5)c1OC [Chelerythrine (chloride)] (10 µM),inactive: 0
14,COc1ccc2c(c1)[nH]c1c(C)nccc12 [Harmine] (10 µM),inactive: 0
15,CCCCCCCCCCCCCCCCOC[C@H](COP(=O)([O-])OCC[N+](C)(C)C)OC(C)=O (10 µM),inactive: 0
16,O=C(O)c1sc2cc(Cl)ccc2c1Cl (10 µM),inactive: 0
17,C[S+]([O-])/C=C/CCN=C=S (stereo unspecified) [Sulforaphene] (10 µM),inactive: 0
18,Cn1cc(C2=C(c3cn(C4CCN(Cc5ccccn5)CC4)c4ccccc34)C(=O)NC2=O)c2ccccc21 [Enzastaurin] (10 µM),inactive: 0
19,CCN1CCN(C(=O)Cc2ccc(Nc3ncc(F)c(Nc4ccc(C(=O)Nc5ccccc5Cl)cc4)n3)cc2)CC1 (2.5 µM),inactive: 0
20,Cc1n[nH]cc1-c1cc2nc([C@@H]3CC4CCN3CC4)[nH]c(=O)c2s1 [Simurosertib] (2.5 µM),inactive: 0
21,O=C(N[C@@H](COc1ccc2[nH]c(=O)[nH]c2c1)c1ccccc1)c1cccn(Cc2ccc(F)c(F)c2)c1=O (2.5 µM),inactive: 0
22,CCOC(=O)c1c(/C(C#N)=C\N)c2ccc(Cl)c(Cl)c2n1C (10 µM),inactive: 0
23,C[C@H](CCC(=O)O)C[C@H](C)C[C@H](C)C(=O)/C=C(\O)[C@H](C)C[C@H](C)C/C=C/[C@@H](C)[C@@H](O)[C@@H](C)[C@@H](O)C[C@@H]1CC[C@@](C)([C@H]2CC[C@@](C)([C@@H](C)O)O2)O1 [Ionomycin (calcium)] (2.5 µM),inactive: 0
24,CC(C)(C)c1cc(C=C(C#N)C#N)cc(Br)c1O (2.5 µM),inactive: 0
25,C=CC(=O)N[C@H]1C=C(C)c2c(-c3cnc4ccccc4c3)c3c(N)ncnc3n2C1 (10 µM),inactive: 0
26,COC[C@H]1OC(=O)c2coc3c2[C@@]1(C)C1=C(C3=O)[C@@H]2CCC(=O)[C@@]2(C)C[C@H]1OC(C)=O [Wortmannin] (2.5 µM),inactive: 0
27,CC(=O)c1c(O)c(C)c(O)c(Cc2c(O)c3c(c(C(=O)/C=C/c4ccccc4)c2O)OC(C)(C)C=C3)c1O [Rottlerin] (2 µM),inactive: 0
28,NCCc1cn(S(=O)(=O)c2c(Cl)nc3sccn23)c2ccccc12 (10 µM),inactive: 0

# Target: CDK6 (UniProt Q00534)
# Assay: as above
# Conditions: K562; 2-18 h
row,Structure (SMILES),kinase-Nluc reporter destabilization hit call
1,CCCCNc1nc(N)c2[nH]c(=O)n(Cc3ccc(C)nc3)c2n1 (10 µM),inactive: 0
2,N#CC(C#N)=Cc1ccc([N+](=O)[O-])c(O)c1 (10 µM),inactive: 0
3,O=c1[nH]c2ccccc2n1C1CCN(Cc2ccc(-c3[nH]c4cc5ncnc5cc4nc3-c3ccccc3)cc2)CC1 [AKT inhibitor VIII] (2.5 µM),inactive: 0
4,CC(=O)Oc1ccc(/C=C/c2cc(OC(C)=O)cc(OC(C)=O)c2)cc1 [Triacetylresveratrol] (10 µM),inactive: 0
5,O=C1c2ccccc2C(=O)c2c1cccc2-c1cnn(C2CCNCC2)c1 [PDK4-IN-1 (hydrochloride)] (10 µM),inactive: 0
6,CC1C(=O)OC2C(O)C34C5OC(=O)C3(OC3OC(=O)C(O)C34C(C(C)(C)C)C5O)C12O (stereo unspecified) [Ginkgolide C] (10 µM),inactive: 0
7,O=Cc1cn(Cc2ccc(Cl)cc2)c2ccccc12 [Oncrasin-1] (10 µM),inactive: 0
8,N#CC(C#N)=NNc1cccc(Cl)c1 (2.5 µM),inactive: 0
9,CC(C)=CC[C@@H](OC(=O)CC(C)(C)O)C1=CC(=O)c2c(O)ccc(O)c2C1=O [β-Hydroxyisovalerylshikonin] (2.5 µM),inactive: 0
10,O=c1ccc2cc(O[C@@H]3O[C@H](CO)[C@@H](O)[C@H](O)[C@H]3O)c(O)cc2o1 [Esculin] (10 µM),inactive: 0
11,C[C@H]1CC[C@]2(NC1)O[C@H]1C[C@H]3[C@@H]4CC[C@H]5C[C@@H](O)CC[C@]5(C)[C@H]4CC[C@]3(C)[C@H]1[C@@H]2C [Tomatidine] (2 µM),inactive: 0
12,C/C(O)=C(\C#N)C(=O)Nc1cc(Br)ccc1Br (10 µM),inactive: 0
13,COc1ccc2c(c[n+](C)c3c4cc5c(cc4ccc23)OCO5)c1OC [Chelerythrine (chloride)] (10 µM),inactive: 0
14,COc1ccc2c(c1)[nH]c1c(C)nccc12 [Harmine] (10 µM),inactive: 0
15,CCCCCCCCCCCCCCCCOC[C@H](COP(=O)([O-])OCC[N+](C)(C)C)OC(C)=O (10 µM),inactive: 0
16,O=C(O)c1sc2cc(Cl)ccc2c1Cl (10 µM),inactive: 0
17,C[S+]([O-])/C=C/CCN=C=S (stereo unspecified) [Sulforaphene] (10 µM),inactive: 0
18,Cn1cc(C2=C(c3cn(C4CCN(Cc5ccccn5)CC4)c4ccccc34)C(=O)NC2=O)c2ccccc21 [Enzastaurin] (10 µM),inactive: 0
19,CCN1CCN(C(=O)Cc2ccc(Nc3ncc(F)c(Nc4ccc(C(=O)Nc5ccccc5Cl)cc4)n3)cc2)CC1 (2.5 µM),inactive: 0
20,Cc1n[nH]cc1-c1cc2nc([C@@H]3CC4CCN3CC4)[nH]c(=O)c2s1 [Simurosertib] (2.5 µM),inactive: 0
21,O=C(N[C@@H](COc1ccc2[nH]c(=O)[nH]c2c1)c1ccccc1)c1cccn(Cc2ccc(F)c(F)c2)c1=O (2.5 µM),inactive: 0
22,CCOC(=O)c1c(/C(C#N)=C\N)c2ccc(Cl)c(Cl)c2n1C (10 µM),inactive: 0
23,C[C@H](CCC(=O)O)C[C@H](C)C[C@H](C)C(=O)/C=C(\O)[C@H](C)C[C@H](C)C/C=C/[C@@H](C)[C@@H](O)[C@@H](C)[C@@H](O)C[C@@H]1CC[C@@](C)([C@H]2CC[C@@](C)([C@@H](C)O)O2)O1 [Ionomycin (calcium)] (2.5 µM),inactive: 0
24,CC(C)(C)c1cc(C=C(C#N)C#N)cc(Br)c1O (2.5 µM),inactive: 0
25,C=CC(=O)N[C@H]1C=C(C)c2c(-c3cnc4ccccc4c3)c3c(N)ncnc3n2C1 (10 µM),inactive: 0
26,COC[C@H]1OC(=O)c2coc3c2[C@@]1(C)C1=C(C3=O)[C@@H]2CCC(=O)[C@@]2(C)C[C@H]1OC(C)=O [Wortmannin] (2.5 µM),inactive: 0
27,CC(=O)c1c(O)c(C)c(O)c(Cc2c(O)c3c(c(C(=O)/C=C/c4ccccc4)c2O)OC(C)(C)C=C3)c1O [Rottlerin] (2 µM),inactive: 0
28,NCCc1cn(S(=O)(=O)c2c(Cl)nc3sccn23)c2ccccc12 (10 µM),inactive: 0

# From the supplement of paper PMC12823440, “Inhibitors supercharge kinase turnover through native proteolytic circuits” (Nature, 2025)
